Record: PubChem BioAssay AID1259254 (NCATS, 2017)
The deposit covers about 59,000 reagents; this is an unselected part. About 1,550 of all reagents (2.6%) count as active. 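G2 share is only a proxy for re-replication; each gene was hit by three separate siRNAs, and active genes were retested.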 Entries without a mark were called inactive. Reagents against one gene are numbered here. Further read-outs or replicates are left out here. Not stated in the record: the amount of reagent.

- Purpose: 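Finding genes that stop cells copying their DNA twice in one cycle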 (primary screen)
- Cell system: human HCT116 colorectal cancer cells
- Reagent: single siRNA against human genes
- Timing: 3 days
- Measurement: 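Nuclei stained with Hoechst and imaged; cell-cycle phase assigned by DNA content; G2 share scaled per plate, non-targeting siRNA 0%, GMNN siRNA 100%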
- Scale: G2 robust z-score: higher = more G2 cells, more excess DNA replication
- Call rule: 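Active siRNAs have a G2 robust z of 5 or more median absolute deviations over the median, which in these data means about 38% or higher of GMNN control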

G2 robust z-score, by target and reagent
TSEN54 (tRNA splicing endonuclease subunit 54): #1 0.769; #2 0.676; #3 0.0739
DYDC1 (DPY30 domain containing 1): #1 -0.707; #2 0.0462; #3 -0.907
IRX6 (iroquois homeobox 6): #1 1.37; #2 -0.611; #3 0.154
PMP2 (peripheral myelin protein 2): #1 -0.683; #2 -0.194; #3 0.282
MAPK6 (mitogen-activated protein kinase 6): #1 -1.71; #2 -1.27; #3 -0.215
ATP8B4 (ATPase phospholipid transporting 8B4 (putative)): #1 12.2 (active); #2 0.05; #3 0.551
PFN1P6 (profilin 1 pseudogene 6): #1 -0.099; #2 0.64; #3 -0.777
ATP10D (ATPase phospholipid transporting 10D (putative)): #1 -0.185; #2 -0.84; #3 -0.353
C1S (complement C1s): #1 -0.342; #2 -1.06; #3 0.0983
FADS6 (fatty acid desaturase 6): #1 6.92 (active); #2 0.395; #3 1.48
CCN3 (cellular communication network factor 3): #1 -1.11; #2 -1.6; #3 -0.48
ROBO2 (roundabout guidance receptor 2): #1 -0.918; #2 1.83; #3 -0.957
CCNA2 (cyclin A2): #1 1.01; #2 7.86 (active); #3 4.96
DCDC2B (doublecortin domain containing 2B): #1 3.52; #2 -0.121; #3 0.0154
JMY (junction mediating and regulatory protein, p53 cofactor): #1 -0.914; #2 0.0797; #3 0.445
GNA13 (G protein subunit alpha 13): #1 0.371; #2 1.26; #3 0.189
CIPC (CLOCK interacting pacemaker): #1 0.348; #2 0.637; #3 -0.721
HOMER3 (homer scaffold protein 3): #1 -0.646; #2 -0.874; #3 0.42
CACNA2D1: #1 0.169; #2 -0.866; #3 0.454
C6orf47 (chromosome 6 open reading frame 47): #1 -1.07; #2 0.401; #3 2.04
DSEL (dermatan sulfate epimerase like): #1 -0.0556; #2 0.182; #3 0.956
PSORS1C1 (psoriasis susceptibility 1 candidate 1): #1 0.416; #2 0.039; #3 0.411
AMER1 (APC membrane recruitment protein 1): #1 -0.652; #2 -0.115; #3 0.664

6 entries from above, arranged by “G2 robust z-score”, descending.
target	reagent no.	G2 robust z-score
TSEN54 (tRNA splicing endonuclease subunit 54)	1	0.769
TSEN54 (tRNA splicing endonuclease subunit 54)	2	0.676
TSEN54 (tRNA splicing endonuclease subunit 54)	3	0.0739
DYDC1 (DPY30 domain containing 1)	2	0.0462
DYDC1 (DPY30 domain containing 1)	1	-0.707
DYDC1 (DPY30 domain containing 1)	3	-0.907
